Data from ChEMBL document CHEMBL1955720 (Bioorg Med Chem, 2012).

Molecular target: T1, Aromatase (Homo sapiens, UniProt P11511)
T1 sequence (P11511 whole entry): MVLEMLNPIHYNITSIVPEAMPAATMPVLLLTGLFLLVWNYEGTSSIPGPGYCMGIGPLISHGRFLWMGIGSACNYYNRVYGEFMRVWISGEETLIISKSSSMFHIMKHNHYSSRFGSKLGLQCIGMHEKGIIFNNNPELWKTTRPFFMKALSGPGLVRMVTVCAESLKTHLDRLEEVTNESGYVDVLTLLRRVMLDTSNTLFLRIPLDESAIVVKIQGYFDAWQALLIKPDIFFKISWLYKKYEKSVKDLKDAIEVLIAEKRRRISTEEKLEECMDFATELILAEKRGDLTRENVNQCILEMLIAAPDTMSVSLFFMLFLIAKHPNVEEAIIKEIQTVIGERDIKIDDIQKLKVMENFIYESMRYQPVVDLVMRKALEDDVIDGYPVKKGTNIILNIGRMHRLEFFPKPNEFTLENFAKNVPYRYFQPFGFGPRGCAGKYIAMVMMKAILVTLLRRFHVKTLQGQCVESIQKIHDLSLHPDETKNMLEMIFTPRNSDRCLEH

Compound: CC(C)(C#N)c1cc(Cn2cncn2)cc(C(C)(C)C#N)c1 [ANASTROZOLE]
- Ki: 130 pM
